This passage reports binding results from publication PMC11288445.

Test [1] deals with T1, 6xHis-TCP24 (Arabidopsis thaliana TCP24, N-terminal six-histidine tag) (Arabidopsis thaliana) (UniProt Q9C758).
T1 sequence: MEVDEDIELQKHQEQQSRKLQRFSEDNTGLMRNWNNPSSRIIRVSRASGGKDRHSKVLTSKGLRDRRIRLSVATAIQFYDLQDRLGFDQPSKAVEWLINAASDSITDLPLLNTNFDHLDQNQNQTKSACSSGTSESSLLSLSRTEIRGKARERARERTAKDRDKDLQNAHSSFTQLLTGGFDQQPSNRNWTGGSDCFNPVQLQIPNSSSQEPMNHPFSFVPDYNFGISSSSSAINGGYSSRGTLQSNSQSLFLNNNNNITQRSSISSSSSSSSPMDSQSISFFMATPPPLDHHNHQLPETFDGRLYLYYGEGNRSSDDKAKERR
The experiment in a line: far-Western, overlay or dot blot; 6xHis-tagged proteins resolved on 4-20% gels and transferred to nitrocellulose; blots overlayed with 15 μg soluble protein extracts from E. coli expressing GST or GST-TCP24 overnight at 4°C; detected with anti-GST antibody; only the target purified.

For test [2], the target named is TCP24 fused to the N- or C-terminal portion of YFP (BiFC) (Arabidopsis thaliana) (UniProt Q9C758). The experiment in a line: split reporter; BiFC with N- and C-terminal portions of YFP in N. benthamiana epidermal cells after agroinfiltration; fluorescence microscopy, H4-RFP as nuclear marker.

These are yes or no findings as the source states them, for the method shown. For some assays here: Binding seen in cells or lysates may run through a third protein. Some results given as binding are weak or reduced against the parent protein; the word gives no strength. Tags and fused reporters may be left off the sequences shown.

B1: GST-TCP24 (Arabidopsis thaliana TCP24, N-terminal glutathione-S-transferase fusion, from E. coli) (protein, UniProt Q9C758 1-324)
chain: T1 sequence
Take B1: the binding entry in test [1] is “binds”.

B2: TCP24 fused to the N- or C-terminal portion of YFP (BiFC) (protein, UniProt Q9C758 1-324)
chain: T1 sequence
For B2, the binding result in test [2] is “binds”.
